The list is a part of this screen's results and no random one: it is rich in T/C values a quarter to a half above the control, in often repeated tests (any T/C) and in doses without a T/C. Further doses and runs are listed elsewhere. T/C: endpoint of the treated group in % of that of the vehicle group. Some entries give survivors of the animals treated and no T/C: the source files T/C as zero there, which appears to mark a toxic dose or a test without result, not a measured value. Some survivor counts are full or nearly so, which does not show that the dose was tolerated: survival well below the control is almost never listed, so the zero probably covers shortened survival too. Survivors were counted at the toxicity check, usually on the fifth day, unless a day is given; later deaths do not show. Schedules are NCI's codes, read here as Q, the interval in days (D) or hours (H), X, the number of doses. Where survival is the endpoint, the PubChem record calls one and a half times the control and up active, and a quarter to a half above the control has no call in these data; cut-offs in other NCI protocols can differ. Some T/C values carry the count of animals alive at the toxicity check (mostly the fifth day); without a count, all were alive then.
Test system: L1210 leukemia ip in BDF1 mice, survival T/C
Assay: NCI In Vivo Anticancer Drug Screen. Data for tumor model L1210 Leukemia (intraperitoneal) in B6D2F1 (BDF1) mice
Details: T/C endpoint: mean survival time, higher T/C = longer survival
[1] = dose: 50.0 mg/kg/injection, schedule: Q01DX009 (ip), vehicle: Klucel (hydroxypropylcellulose) (HPC)
[2] = dose: 100.0 mg/kg/injection, schedule: Q01DX009 (ip), vehicle: Klucel (hydroxypropylcellulose) (HPC)
[3] = dose: 200.0 mg/kg/injection, schedule: Q01DX009 (ip), vehicle: Klucel (hydroxypropylcellulose) (HPC)
[4] = dose: 400.0 mg/kg/injection, schedule: Q04DX003 (ip), vehicle: saline with Tween-80

Question: Which survivor count (dose: 200.0 mg/kg/injection, schedule: Q01DX001 (ip), vehicle: Klucel (hydroxypropylcellulose) (HPC)) does the source give for `CCc1cnc(N)nc1N` here?
Answer: 3 of 6

Question: What about the survivor count (dose: 400.0 mg/kg/injection, schedule: Q01DX001 (ip), vehicle: Klucel (hydroxypropylcellulose) (HPC)) of the same compound?
Answer: 0 of 6

Question: For `Cc1ccc(SCCN=C(N)CSS(=O)(=O)O)cc1`, which survivor count [1] is on record?
Answer: 0 of 3

Question: And the survivor count [2]?
Answer: 0 of 3

Question: What about the survivor count [3] of the same compound?
Answer: 0 of 3

Question: And the survivor count (dose: 400.0 mg/kg/injection, schedule: Q01DX009 (ip), vehicle: Klucel (hydroxypropylcellulose) (HPC))?
Answer: 0 of 3

Question: For `Cc1ccc([N+](=O)[O-])cc1NC(=O)Oc1ccc(Cl)cc1Cl`, which survivor count [4] is on record?
Answer: 3 of 6

Question: Which survivor count (dose: 100.0 mg/kg/injection, schedule: Q04DX002 (ip), vehicle: saline with Tween-80) does the source give for `On1ccccc1=S` here?
Answer: 0 of 3

Question: And the survivor count (dose: 200.0 mg/kg/injection, schedule: Q04DX002 (ip), vehicle: saline with Tween-80)?
Answer: 0 of 3

Question: And the survivor count (dose: 400.0 mg/kg/injection, schedule: Q04DX002 (ip), vehicle: saline with Tween-80)?
Answer: 0 of 3

Question: How did the survivor count [4] turn out when `Oc1ccc(Cl)c2c1CCC2` was run?
Answer: 6 of 6

Question: With `COC(=O)CCN1C(=O)c2ccccc2C1=O` as the compound, how does the survivor count (dose: 400.0 mg/kg/injection, schedule: Q01DX001 (ip), vehicle: saline with Tween-80) read?
Answer: 6 of 6

Question: What does the source list for `CCC[n+]1cccc(C#N)c1`?
Answer: survivor count (dose: 150.0 mg/kg/injection, schedule: Q04DX003 (ip), vehicle: saline): 3 of 6; survivor count (dose: 300.0 mg/kg/injection, schedule: Q01DX001 (ip), vehicle: saline): 0 of 6

Question: For `CC1COCC(C)N1C1=C(Cl)C(=O)c2ccccc2C1=O` (configuration not stated), which survivor count (dose: 50.0 mg/kg/injection, schedule: Q01DX001 (ip), vehicle: carboxymethylcellulose (CMC)) is on record?
Answer: 2 of 4

Question: And the survivor count (dose: 100.0 mg/kg/injection, schedule: Q01DX001 (ip), vehicle: carboxymethylcellulose (CMC))?
Answer: 0 of 4

Question: And the survivor count (dose: 200.0 mg/kg/injection, schedule: Q01DX001 (ip), vehicle: carboxymethylcellulose (CMC))?
Answer: 0 of 4

Question: What about the survivor count (dose: 400.0 mg/kg/injection, schedule: Q01DX001 (ip), vehicle: carboxymethylcellulose (CMC)) of the same compound?
Answer: 0 of 4

Question: With `C=C1N(C)c2ccccc2C1(C)C` as the compound, how does the survivor count (dose: 16.0 mg/kg/injection, schedule: Q01DX015 (ip), vehicle: carboxymethylcellulose (CMC)) read?
Answer: 3 of 6

Question: Which T/C (dose: 100.0 mg/kg/injection, schedule: Q01DX005 (ip), vehicle: saline) does the source give for `O=Cc1cn(C2CC(O)C(CO)O2)c(=O)[nH]c1=O` (configuration not stated) here?
Answer: 130 % of control

Question: And the T/C [2]?
Answer: 130 % of control

Question: What about the T/C (dose: 200.0 mg/kg/injection, schedule: Q01DX005 (ip), vehicle: saline) of the same compound?
Answer: 128 % of control

Question: What about the T/C [3] of the same compound?
Answer: 129 % of control [5 of 6 alive]

Question: How did the survivor count (dose: 400.0 mg/kg/injection, schedule: Q04DX002 (ip), vehicle: gum acacia) turn out when `O=S(=O)(c1ccc(O)c(F)c1)c1ccc(O)c(F)c1` was run?
Answer: 3 of 3

Question: What does the source list for `CC1=[N+](C)C(C)(C)CC(C)O1` (configuration not stated)?
Answer: survivor count (dose: 100.0 mg/kg/injection, schedule: Q04DX003 (ip), vehicle: saline): 5 of 6; survivor count (dose: 200.0 mg/kg/injection, schedule: Q04DX003 (ip), vehicle: saline): 1 of 6; survivor count (dose: 400.0 mg/kg/injection, schedule: Q04DX003 (ip), vehicle: saline): 0 of 6

Question: For `Cc1ccc(CNC(=S)Nc2ccccc2)cc1`, which survivor count (dose: 12.5 mg/kg/injection, schedule: Q01DX009 (ip), vehicle: Klucel (hydroxypropylcellulose) (HPC)) is on record?
Answer: 3 of 3

Question: What about the survivor count (dose: 25.0 mg/kg/injection, schedule: Q01DX009 (ip), vehicle: Klucel (hydroxypropylcellulose) (HPC)) of the same compound?
Answer: 3 of 3

Question: What about the survivor count [1] of the same compound?
Answer: 3 of 3

Question: What about the survivor count [2] of the same compound?
Answer: 3 of 3

Question: What about the survivor count [3] of the same compound?
Answer: 3 of 3

— PubChem BioAssay AID248 (DTP/NCI, 2004)
